Measured values reported in PubChem BioAssay AID186 (DTP/NCI, 2004).
Shown are survivors of the treated group in tumour-free mice. Survivors were counted at the toxicity check, usually on the fifth day, unless a day is given; later deaths do not show. Schedule codes are those of the source, taken here to give the interval after Q, in days (D) or hours (H), and the number of doses after X.

Tested on: B6D2F1 mice, nontumored toxicity test, survival
Experiment: NCI In Vivo Anticancer Drug Screen. Data for tumor model Nontumored Animals (Toxicity Test) in B6D2F1 (BDF1) mice

## O=c1[nH]c(=O)n(C2CC(O)C(CO)O2)cc1C(F)(F)F (stereo not drawn)
dose: 8.0 mg/kg/injection, schedule: Q03HX024 (ip), vehicle: water
  survivor count: 6 of 6
dose: 16.0 mg/kg/injection, schedule: Q01DX009 (ip), vehicle: water
  survivor count: 6 of 6
dose: 16.0 mg/kg/injection, schedule: Q03HX024 (ip), vehicle: water
  survivor count: 6 of 6
dose: 32.0 mg/kg/injection, schedule: Q01DX009 (ip), vehicle: water
  survivor count: 6 of 6
dose: 32.0 mg/kg/injection, schedule: Q03HX024 (ip), vehicle: water
  survivor count: 6 of 6
dose: 64.0 mg/kg/injection, schedule: Q01DX009 (ip), vehicle: water
  survivor count: 6 of 6
dose: 64.0 mg/kg/injection, schedule: Q03HX016 (ip), vehicle: water
  survivor count: 6 of 6
dose: 64.0 mg/kg/injection, schedule: Q03HX024 (ip), vehicle: water
  survivor count: 6 of 6
dose: 128.0 mg/kg/injection, schedule: Q01DX009 (ip), vehicle: water
  survivor count: 6 of 6
dose: 128.0 mg/kg/injection, schedule: Q03HX016 (ip), vehicle: water
  survivor count: 6 of 6
dose: 256.0 mg/kg/injection, schedule: Q01DX009 (ip), vehicle: water
  survivor count: 6 of 6
dose: 256.0 mg/kg/injection, schedule: Q03HX016 (ip), vehicle: water
  survivor count: 6 of 6
dose: 256.0 mg/kg/injection, schedule: Q04DX003 (ip), vehicle: water
  survivor count: 6 of 6
dose: 512.0 mg/kg/injection, schedule: Q03HX016 (ip), vehicle: water
  survivor count: 6 of 6
dose: 512.0 mg/kg/injection, schedule: Q04DX003 (ip), vehicle: water
  survivor count: 6 of 6
dose: 1024.0 mg/kg/injection, schedule: Q04DX003 (ip), vehicle: water
  survivor count: 6 of 6
dose: 2048.0 mg/kg/injection, schedule: Q04DX003 (ip), vehicle: water
  survivor count: 6 of 6

## O=[N+]([O-])c1ccc(CSc2ncnc3c2ncn3C2OC(CO)C(O)C2O)cc1 (stereo not drawn)
dose: 3.13 mg/kg/injection, schedule: Q01DX009 (ip), vehicle: saline with Tween-80
  survivor count: 5 of 5
dose: 6.25 mg/kg/injection, schedule: Q01DX009 (ip), vehicle: saline with Tween-80
  survivor count: 5 of 5
dose: 12.5 mg/kg/injection, schedule: Q01DX009 (ip), vehicle: saline with Tween-80
  survivor count: 5 of 5
dose: 25.0 mg/kg/injection, schedule: Q01DX009 (ip), vehicle: saline with Tween-80
  survivor count: 5 of 5
dose: 50.0 mg/kg/injection, schedule: Q01DX009 (ip), vehicle: saline with Tween-80
  survivor count: 5 of 5
dose: 100.0 mg/kg/injection, schedule: Q01DX009 (ip), vehicle: saline with Tween-80
  survivor count: 5 of 5

## O=C[C@@H](CO)O[C@H](C=O)n1cnc2c(=O)[nH]cnc21
dose: 125.0 mg/kg/injection, schedule: Q01DX009 (ip), vehicle: saline with Tween-80
  survivor count: 10 of 10
dose: 150.0 mg/kg/injection, schedule: Q01DX009 (ip), vehicle: saline with Tween-80
  survivor count: 10 of 10
dose: 175.0 mg/kg/injection, schedule: Q01DX009 (ip), vehicle: saline with Tween-80
  survivor count: 10 of 10
dose: 200.0 mg/kg/injection, schedule: Q01DX009 (ip), vehicle: saline with Tween-80
  survivor count: 10 of 10
dose: 200.0 mg/kg/injection, schedule: Q04DX003 (ip), vehicle: saline with Tween-80
  survivor count: 10 of 10
dose: 225.0 mg/kg/injection, schedule: Q01DX009 (ip), vehicle: saline with Tween-80
  survivor count: 10 of 10
dose: 250.0 mg/kg/injection, schedule: Q04DX003 (ip), vehicle: saline with Tween-80
  survivor count: 10 of 10
dose: 300.0 mg/kg/injection, schedule: Q04DX003 (ip), vehicle: saline with Tween-80
  survivor count: 10 of 10
dose: 350.0 mg/kg/injection, schedule: Q04DX003 (ip), vehicle: saline with Tween-80
  survivor count: 10 of 10
dose: 400.0 mg/kg/injection, schedule: Q04DX003 (ip), vehicle: saline with Tween-80
  survivor count: 10 of 10

## NC(=O)N(CCCl)N=O
dose: 2.0 mg/kg/injection, schedule: Q01DX001 (ip), vehicle: saline + alcohol
  survivor count: 10 of 10
dose: 4.0 mg/kg/injection, schedule: Q01DX001 (ip), vehicle: saline + alcohol
  survivor count: 10 of 10
dose: 8.0 mg/kg/injection, schedule: Q01DX001 (ip), vehicle: saline + alcohol
  survivor count: 10 of 10
dose: 16.0 mg/kg/injection, schedule: Q01DX001 (ip), vehicle: saline + alcohol
  survivor count: 10 of 10
dose: 32.0 mg/kg/injection, schedule: Q01DX001 (ip), vehicle: saline + alcohol
  survivor count: 7 of 10
dose: 64.0 mg/kg/injection, schedule: Q01DX001 (ip), vehicle: saline + alcohol
  survivor count: 0 of 10

## COc1ccc(CC(=O)NN)cc1OC
dose: 80.0 mg/kg/injection, schedule: Q04DX002 (ip), vehicle: saline with Tween-80
  survivor count: 10 of 10
dose: 100.0 mg/kg/injection, schedule: Q04DX002 (ip), vehicle: saline with Tween-80
  survivor count: 10 of 10
dose: 128.0 mg/kg/injection, schedule: Q04DX002 (ip), vehicle: saline with Tween-80
  survivor count: 10 of 10
dose: 150.0 mg/kg/injection, schedule: Q04DX002 (ip), vehicle: saline with Tween-80
  survivor count: 10 of 10
